Each structure is given as a SMILES string.

Papp A→B data for one molecule are collected here from publication PMC4907212, “Mucosal and blood-brain barrier transport kinetics of the plant N-alkylamide spilanthol using in vitro and in vivo models” (BMC Complementary and Alternative Medicine, 2016).

The nature of this data set: Caco-2 cell permeability assay (Transwell, ab and ba direction). Format: in vitro ADME. Conditions: human, Caco-2, high-permeability (positive) control. The procedure: Caco-2 cells, originating from a human colorectal carcinoma were maintained in Dulbecco's modified Eagle's medium (DMEM) at 95 % humidity and 37 °C in an atmosphere of 5 % CO2, supplemented with 10 % (V/V) fetal bovine serum, 2 mM L-glutamine and 1 % non-essential amino acids (100x), 100 U/ml penicillin and 100 μg/ml streptomycin (all from Invitrogen/GIBCO, Ghent, Belgium). The Caco-2 cell intestinal model was used as a model for the gut mucosa to investigate the permeation of spilanthol. Caco-2 cells were seeded at a density of 2.6 · 10^5 cells/cm^2 cells for each Transwell (Corning Costar, New York, USA) membrane insert filter (0.4 μm pore size, 12 mm filter diameter) and cultivated in the described supplemented DMEM, also containing 100 units/ml penicillin and 100 μg/ml streptomycin. The medium was changed every second day. The cells were allowed to grow and differentiate for 21-29 days until monolayers were formed. […] Quantification of spilanthol was conducted using the UPLC-MS^2 method as described below. The apparent permeability coefficient (Papp in cm/s) of spilanthol was calculated from a non-sink equation. […] The efflux ratio is calculated as Papp,ba/Papp,ab, while the uptake ratio is calculated as Papp,ab/Papp,ba.
For orientation: Caco-2 cells form a polarised layer with tight junctions and transporters.

In the case of `CC(C)NCC(O)COc1cccc2ccccc12` (stereo not shown) [Propranolol, propranolol, reference compound], the apical-to-basolateral permeability (Papp A→B) at 120 min, 20 μM was determined as 19.1 ×10⁻⁶ cm/s.

In general, Papp A→B refers to the apparent permeability from the apical to the basolateral side of a cell layer. A higher Papp A→B goes with fast passage.
